# Data as given in PubChem BioAssay AID493036 (Sanford-Burnham Center for Chemical Genomics, 2011).
# The other results are listed elsewhere or left out.
# Assay: agonists of NTR1, primary screen, imaging, U2OS cells, beta-arrestin-GFP, high content (AID 493036) (AID 493036)
# Settings: NTR1-U2OS beta-arrestin-GFP spot imaging, agonist mode; measured here: cell count, cytotoxicity flag; at 20 µM
row,Structure (SMILES),cell count [cells]
1,CCC(=O)N(c1ccccc1)C1(COC)CCN(CCc2cccs2)CC1,60
2,CCC(=O)N(c1ccccc1)C1(COC)CCN(CCn2nnn(CC)c2=O)CC1,53
3,CC(=O)c1ccc(N2CC2c2ccncc2)cc1 (stereo not drawn),99
